Data reported in patent US12070505B2, “Targeted peptide-drug conjugates” (priority 2021, dated 2024).
At least one peptide structure holds a part that was inferred or is arguable (an end, a ring closure or a residue). For some of these results: At least one structure is not confirmed: it was looked up by name or label, or the drawing left a doubt. Positions of bridges follow the written chain, without caps; N, C: chain ends. Residues, ends and D or L forms follow the SMILES beside them. Chains are numbered I, II in the order given. *: point of attachment. Glutaryl(5-(14-O-Dox)) = COc1cccc2c1C(=O)c1c(O)c3c(c(O)c1C2=O)C[C@@](O)(C(=O)COC(=O)CCCC(=O)*)C[C@@H]3O[C@H]1C[C@H](N)[C@H](O)[C@H](C)O1; βAla = NCCC(=O)O

Experiments:
MDA-231WT cells = experiment: LC50 by CCK-8 assay, wild-type cells; assay type: cell-based; conditions: MDA-MB-231WT
Protocol: (§1) Dox-resistant Cell Lines. Acquired resistance to Dox was induced in wild-type triple-negative breast cancer cell line MDA-MB-231 (MDA-231WT) as described before (Aliabadi, H. M.; et al. J. Control. Release 172:219-228, 2013, which is incorporated herein by reference). Briefly, MDA-231WT cells were exposed to Dox at an initial concentration of 0.05 μg/mL for one week or three consecutive expansions (whichever came later). […] Resistance induction was confirmed via calculation of LC50 following a sigmoidal effect model explained elsewhere (Bousoik, E.; et al. Front. Oncol. 9:1070, 2019, which is incorporated herein by reference) and determination of P-glycoprotein (P-gp) expression.
(§2) The cytotoxicity of the peptide-Dox conjugate in resistant triple-negative breast cancer and uterine sarcoma cell lines (MDA-231R, MDA-231WT, and MES-SA/MX2) was evaluated by a Cell Counting 8 (CCK8) KIT. The peptide-Dox conjugate was added to the cells in triplicate with different concentrations (0-40 μM). Cells were incubated at 37° C. and 5% CO2 for 24 h. […] The absorbance of each well was determined at 450 nm using the SpectraMAX M5 microplate reader. […]
(§3) Efficiency in Dox-Resistant Cells. […] The cell viability was determined after this incubation period using the CCK-8 assay, as explained above. […]

MDA-231R cells = experiment: LC50 by CCK-8 assay, Dox-resistant MDA-231R; assay type: cell-based; conditions: MDA231R, from LC50
Protocol: as §1, §2, §3

MES-SA/MX2 cells = experiment: LC50 by CCK-8 assay, Dox-resistant MES-SA/MX2; assay type: cell-based; conditions: MES-SA/MX2, from LC50
Protocol: as §1
The cytotoxicity of the peptide-Dox conjugate in resistant triple-negative breast cancer and uterine sarcoma cell lines (MDA-231R, MDA-231WT, and MES-SA/MX2) was evaluated by a Cell Counting 8 (CCK8) KIT. The peptide-Dox conjugate was added to the cells in triplicate with different concentrations (0-40 μM). […] After this incubation period, 10 μL of CCK8 reagent was added to each well, and plates were incubated at the same conditions for 2 h. The absorbance of each well was determined at 450 nm using the SpectraMAX M5 microplate reader. […]
as §3

CCRF-CEM cells = experiment: Cytotoxicity, MTS cell viability assay, CCRF-CEM

## COc1cccc2c1C(=O)c1c(O)c3c(c(O)c1C2=O)C[C@@](O)(C(=O)COC(=O)CCCC(=O)NCCC(=O)N[C@@H](Cc1c[nH]c2ccccc12)C(=O)N[C@@H](Cc1c[nH]c2ccccc12)C(=O)N[C@@H](Cc1c[nH]c2ccccc12)C(=O)N[C@@H](Cc1c[nH]c2ccccc12)C(=O)N[C@@H](Cc1c[nH]c2ccccc12)C(=O)N[C@@H](Cc1c[nH]c2ccccc12)C(=O)N[C@@H](Cc1c[nH]c2ccccc12)C(=O)NCCCC[C@@H]1NC(=O)[C@H](CCCNC(=N)N)NC(=O)[C@H](CCCNC(=N)N)NC(=O)[C@H](CCCNC(=N)N)NC(=O)[C@H](CCCNC(=N)N)NC(=O)[C@H](CCCNC(=N)N)NC1=O)C[C@@H]3O[C@H]1C[C@H](N)[C@H](O)[C@H](C)O1 [[R5K]W7A-Dox]
MDA-231WT cells
  fold lower activity compared to free Dox: 1.5 fold
MDA-231R cells
  fold higher activity compared to free Dox: 16 fold
MES-SA/MX2 cells
  fold higher activity compared to free Dox: 9.5 fold
CCRF-CEM cells
  fold more efficient than R5KW7A-Dox and [R5K]W7C—S—S-Dox in inhibiting cell proliferation: 2 fold

## COc1cccc2c1C(=O)c1c(O)c3c(c(O)c1C2=O)C[C@@](O)(C(=O)COC(=O)CCCC(=O)NCCC(=O)N[C@@H](Cc1c[nH]c2ccccc12)C(=O)N[C@@H](Cc1c[nH]c2ccccc12)C(=O)N[C@@H](Cc1c[nH]c2ccccc12)C(=O)N[C@@H](Cc1c[nH]c2ccccc12)C(=O)N[C@@H](Cc1c[nH]c2ccccc12)C(=O)N[C@@H](Cc1c[nH]c2ccccc12)C(=O)N[C@@H](Cc1c[nH]c2ccccc12)C(=O)NCCCC[C@H](NC(C)=O)C(=O)N[C@@H](CCCNC(=N)N)C(=O)N[C@@H](CCCNC(=N)N)C(=O)N[C@@H](CCCNC(=N)N)C(=O)N[C@@H](CCCNC(=N)N)C(=O)N[C@@H](CCCNC(=N)N)C(=O)O)C[C@@H]3O[C@H]1C[C@H](N)[C@H](O)[C@H](C)O1 [R5KW7A-Dox] (I: {Glutaryl(5-(14-O-Dox))-βAla}-WWWWWWW / II: Ac-KRRRRR-OH; amide I:C-II:1)
CCRF-CEM cells; 5 μM
  Cell Viability (%) after 24 h: 95 ± 0%
  Cell Viability (%) after 72 h: 77 ± 1%
CCRF-CEM cells; 10 μM
  Cell Viability (%) after 24 h: 86 ± 1%
  Cell Viability (%) after 72 h: 49 ± 8%
CCRF-CEM cells; 25 μM
  Cell Viability (%) after 24 h: 82 ± 1%
  Cell Viability (%) after 72 h: 18 ± 3%
